The values below come from patent US20100303814A1.

For this assay, the target named is T1, variant HnRNPG (cancer-associated variant of heterogeneous ribonucleoprotein G) (human).
T1 sequence: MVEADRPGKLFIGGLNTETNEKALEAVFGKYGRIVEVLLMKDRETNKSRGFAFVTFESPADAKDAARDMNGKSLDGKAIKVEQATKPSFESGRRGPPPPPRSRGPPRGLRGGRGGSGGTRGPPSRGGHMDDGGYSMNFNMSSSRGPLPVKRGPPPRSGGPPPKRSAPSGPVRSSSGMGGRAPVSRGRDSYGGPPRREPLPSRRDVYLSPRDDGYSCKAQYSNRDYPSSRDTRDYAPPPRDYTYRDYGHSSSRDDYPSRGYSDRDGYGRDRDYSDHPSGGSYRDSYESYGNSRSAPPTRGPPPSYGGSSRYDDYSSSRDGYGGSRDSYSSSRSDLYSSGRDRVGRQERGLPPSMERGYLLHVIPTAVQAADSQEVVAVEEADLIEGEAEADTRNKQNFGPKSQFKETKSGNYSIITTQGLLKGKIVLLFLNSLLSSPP
The assay is described as follows: immunoprecipitation with VB1-213, MS/MS ion fragmentation.

No constants are given. Whether binding was seen depends on the method and setting. Some entries that bind do so weakly or less than the wild type.

B1: VB1-213 monoclonal antibody (antibody, human IgG1, V domains shown)
VH: EVQLLESGGGLVQPGGSLRLSCAASGFTFRSYAMSWVRQAPGKGLEWVSTISGRGVTTYYADSVKGRFTISRDNSKNTLYLQMNSLRADDTALYYCAKDRTRYYGMDVWGQGTTVTVSS
VL: SYELTQPPSVSVSPGQTASITCSGNKLGDKYACWYQQKSGQSPVLVIYQDSKRPSGIPERFSGSNSGNTATLTISGTQALDEADYYCQAWDNSTAVFGGGTKLTVLG
On to B1, for which the binding result is recorded as “binds”.
